Measured values as given in PubChem BioAssay AID445 (National Center for Advancing Translational Sciences (NCATS), 2006).
Some of the results follow. The main result of the screen is listed elsewhere. These columns were measured beside it and carry no call. The list favours compounds with an active or inconclusive main result. Potencies come from curve fits of mixed quality, noted in brackets.

Test: IkB Signaling
Details: ABC-DLBCL IkBa-CBG/CBR dual luciferase ratio (green luciferase fused to IkBa over red control in OCI-Ly3 lymphoma cells), 4 h
How it was run: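 In this assay, an IκBα–CBG68 fusion accumulates when IKK-driven degradation is blocked; native CBR normalizes for cell number. OCI-Ly3 cells were treated 4 h with compound and doxycycline, then green and red light read after Chroma-Glo addition.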

[1] = measured here: control luc red channel unless noted

Question: Which AC50 [1] does the source give for `CCOCCOC(=O)C1=C(C)Nc2ccc(C)cc2S1` here?
Answer: 25.1 µM [falling, partial curve]

Question: With `CCn1c(SCC(=O)Nc2nc3ccc(C)cc3s2)nc2c(c1=O)SC(C)C2` (centres undefined) as the compound, how does the AC50 [1] read?
Answer: 3.16 µM [falling, full curve, poor fit]

Question: With `Cc1ccc(-c2nnc(SCc3ccccc3C#N)o2)cc1` as the compound, how does the AC50 [1] read?
Answer: 0.501 µM [rising, partial curve]

Question: For `COc1cccc(-c2nc(CS(=O)(=O)CC(=O)NCc3ccc(C)cc3)c(C)o2)c1`, which AC50 [1] is on record?
Answer: 39.8 µM [falling, partial curve]

Question: With `Cc1ccc(CN2C(=O)C(O)(c3c[nH]c4ccccc34)c3cc(Cl)ccc32)cc1` (centres undefined) as the compound, how does the AC50 [1] read?
Answer: 25.1 µM [falling, partial curve]

Question: Which AC50 [1] does the source give for `Cc1ccc2c(c1)NC(c1cccnc1)=NC(c1ccc(F)cc1)=N2` here?
Answer: 39.8 µM [falling, single point]

Question: Which AC50 [1] does the source give for `O=C(CSc1nc2cc(Cl)ccc2s1)NC(=O)NCc1ccco1` here?
Answer: 10 µM [falling, partial curve]

Question: For `N=c1c(S(=O)(=O)c2ccccc2)cc2c(=O)n3ccccc3nc2n1Cc1ccco1`, which AC50 [1] is on record?
Answer: 25.1 µM [rising, partial curve] [measured here: IkB-luc green channel]

Question: Which AC50 [1] does the source give for `CCc1ccc(CN(Cc2cn[nH]c2-c2ccc(OC)cc2)C(=O)Nc2ccc(C)c(F)c2)cc1` here?
Answer: 3.16 µM [falling, single point]

Question: Which AC50 [1] does the source give for `N#Cc1cn(CC(=O)NCCc2c[nH]c3ccccc23)c2ccccc12` here?
Answer: 31.6 µM [falling, partial curve]

Question: Which AC50 [1] does the source give for `Cc1ccc(NC(=O)c2oc3ccccc3c2NC(=O)c2ccccc2C)cc1` here?
Answer: 10 µM [falling, partial curve]

Question: Which AC50 [1] does the source give for `O=C(NC1CC(=O)N(c2cccc(F)c2)C1)C1CC1` (centres undefined) here?
Answer: 3.98 µM [falling, partial curve]

Question: For `CCOC(=O)c1c(-c2ccccc2)oc2ccc(NS(=O)(=O)c3ccc(C)cc3C)cc12`, which AC50 [1] is on record?
Answer: 20 µM [falling, partial curve]

Question: Which AC50 [1] does the source give for `CSc1nnc(NC(=O)Cc2coc3cc(C)ccc23)s1` here?
Answer: 3.16 µM [rising, partial curve]

Question: For `Cc1nc(C)c(-c2ccc(SCC(=O)Nc3ccc(F)c(F)c3)nn2)s1`, which AC50 [1] is on record?
Answer: 25.1 µM [falling, partial curve]

Question: Which AC50 [1] does the source give for `COc1cc(/C=C(\C#N)c2nc3ccccc3n2C)cc(OC)c1OC` here?
Answer: 15.8 µM [falling, partial curve]

Question: With `Cc1ccc(NC(=O)c2cc(S(=O)(=O)N3CCCC(C)C3)cn2C)c(Br)c1` (centres undefined) as the compound, how does the AC50 [1] read?
Answer: 1.58 µM [falling, partial curve]

Question: Which AC50 [1] does the source give for `CCN1CCN(c2oc(/C=C/c3ccccc3OC)nc2C#N)CC1` here?
Answer: 20 µM [falling, partial curve]

Question: Which AC50 [1] does the source give for `O=C(CSc1nc2c(oc3ccccc32)c(=O)n1-c1ccccc1F)Nc1ccccc1` here?
Answer: 12.6 µM [falling, partial curve]

Question: For `O=c1c2ccccc2nc2ccc(NCc3ccco3)nn12`, which AC50 (measured here: IkB-luc green channel) is on record?
Answer: 6.31 µM [rising, single point]

Question: And the AC50 (measured here: control luc red channel)?
Answer: 10 µM [falling, partial curve]

Question: With `Cc1ccc(CN2CCSc3ccc(C(=O)N4CCN(c5cc(C)ccc5C)CC4)cc32)cc1` as the compound, how does the AC50 [1] read?
Answer: 15.8 µM [falling, partial curve]

Question: With `CCOC(=O)c1c(S(=O)(=O)N2CCCC(C(=O)N3CCN(c4cccc(C)c4C)CC3)C2)c(C)n(C)c1C` (centres undefined) as the compound, how does the AC50 [1] read?
Answer: 12.6 µM [falling, partial curve]

Question: With `COc1cc(C2CC(=O)c3c([nH]c(C(=O)OCCOC(C)C)c3C)C2)cc(OC)c1OC` (centres undefined) as the compound, how does the AC50 [1] read?
Answer: 7.94 µM [falling, partial curve]

Question: Which AC50 [1] does the source give for `CCOc1cc(S(=O)(=O)n2ccnc2C(C)C)ccc1Cl` here?
Answer: 15.8 µM [falling, partial curve]

Question: With `Cc1ccccc1NC(=O)CCn1cnc2onc(-c3ccc(F)cc3)c2c1=O` as the compound, how does the AC50 [1] read?
Answer: 31.6 µM [falling, single point]

Question: Which AC50 [1] does the source give for `Cc1ccc(N2C(=O)[C@@H]3[C@H](C2=O)C2c4ccccc4C=CN2[C@@H]3C(=O)c2ccco2)cc1` (some centres undefined) here?
Answer: 7.94 µM [falling, partial curve]

Question: Which AC50 [1] does the source give for `Cc1ccc(NS(=O)(=O)c2c(C(=O)N3CCC(C)CC3)c(C)n(C)c2C)cc1Cl` here?
Answer: 6.31 µM [rising, single point]

Question: For `CCOc1ccc(NC(=O)CCn2cnc3onc(-c4ccc(F)cc4)c3c2=O)cc1`, which AC50 [1] is on record?
Answer: 0.158 µM [falling, partial curve]

Question: For `Cc1cccc(C)c1NC(=O)Cn1c(=O)n(CC2CCC(C(=O)NCCc3ccccc3)CC2)c(=O)c2ccccc21` (centres undefined), which AC50 [1] is on record?
Answer: 20 µM [falling, single point]

Question: With `CCOC(=O)CSc1nc2c(sc3ccccc32)c(=O)n1CCc1ccccc1` as the compound, how does the AC50 [1] read?
Answer: 0.316 µM [falling, partial curve, poor fit]

Question: Which AC50 [1] does the source give for `O=[N+]([O-])c1cc(-c2nc(-c3ccccc3)no2)ccc1N1CCN(c2ccccc2)CC1` here?
Answer: 6.31 µM [falling, partial curve]

Question: For `CSc1ccc(S(=O)(=O)Nc2c(C)cccc2C)cc1`, which AC50 [1] is on record?
Answer: 10 µM [falling, partial curve]

Question: With `CC(=O)c1ccc(S(=O)(=O)Nc2cccc(-c3ccc(N4CCCCC4)nn3)c2)cc1` as the compound, how does the AC50 [1] read?
Answer: 20 µM [falling, partial curve]

Question: For `Cc1ccc(OS(=O)Nc2cccc3nccnc23)cc1` (centres undefined), which AC50 [1] is on record?
Answer: 20 µM [rising, partial curve] [measured here: IkB-luc green channel]

Question: For `Cc1ccc(C(=O)O)cc1Nc1nc2ccccc2n2nnnc12`, which AC50 [1] is on record?
Answer: 0.794 µM [falling, full curve]

Question: With `COc1ccc(C(=O)n2nc(-c3ccccc3)nc2N)cc1OC` as the compound, how does the AC50 [1] read?
Answer: 15.8 µM [falling, partial curve]

Question: Which AC50 [1] does the source give for `Oc1ccccc1-c1cc(-c2cccc(F)c2)n[nH]1` here?
Answer: 20 µM [falling, partial curve, poor fit]

Question: Which AC50 [1] does the source give for `COc1ccc(-c2cc3ccc(O)c(CN4CCOCC4)c3oc2=O)cc1` here?
Answer: 1 µM [rising, full curve, poor fit]

Question: Which AC50 [1] does the source give for `Cc1cccc(NC(=O)c2nc(S(C)(=O)=O)ncc2Cl)c1` here?
Answer: 3.16 µM [falling, full curve]

Question: Which AC50 [1] does the source give for `Cc1cccc(NC(=O)CSc2nc(-c3ccco3)nc3cc(=O)[nH]n23)c1` here?
Answer: 20 µM [falling, partial curve, poor fit]

Question: Which AC50 [1] does the source give for `Cc1cc(=O)oc2c1ccc1oc(/C(=N/O)c3ccccc3)c(C)c12` here?
Answer: 10 µM [falling, partial curve]

Question: With `COC(=O)c1c(SC)nc2ccccc2c1OCc1ccccc1C` as the compound, how does the AC50 [1] read?
Answer: 10 µM [falling, full curve, poor fit]

Question: For `CC(C)(C)C(=O)c1sc(Nc2ccccc2)nc1N`, which AC50 [1] is on record?
Answer: 20 µM [falling, partial curve]

Question: Which AC50 [1] does the source give for `O=C(CN1CCCCC1)Nc1nnc(-c2ccccc2)s1` here?
Answer: 15.8 µM [falling, partial curve]

Question: For `NC(=O)c1cc2ccc(O)cc2oc1=NCc1ccccc1`, which AC50 [1] is on record?
Answer: 10 µM [falling, partial curve]

Question: For `CCOc1ccccc1NC(=O)c1c(NC(=O)c2ccccc2)sc2c1CCCC2`, which AC50 [1] is on record?
Answer: 12.6 µM [falling, partial curve]

Question: With `CCOc1ccccc1CNC(=O)c1cnc2sc(N3CCCCCC3)nn2c1=O` as the compound, how does the AC50 [1] read?
Answer: 25.1 µM [falling, single point]

Question: With `CCc1ccc(Oc2c(C(F)(F)F)oc3c(CN4CCN(C)CC4)c(O)ccc3c2=O)cc1` as the compound, how does the AC50 [1] read?
Answer: 15.8 µM [falling, single point]

Question: With `O=C(Cn1cc(SCc2cccc(Cl)c2)c2ccccc21)N1CCCCCC1` as the compound, how does the AC50 [1] read?
Answer: 12.6 µM [falling, partial curve]

Question: With `CCc1ccc(S(=O)(=O)NCCc2csc3nc(-c4ccccc4)nn23)s1` as the compound, how does the AC50 [1] read?
Answer: 39.8 µM [falling, single point]

Question: Which AC50 [1] does the source give for `COc1ccccc1CN(Cc1ccco1)c1cnc(S(C)(=O)=O)nc1C(=O)Nc1cc(C)ccc1C` here?
Answer: 10 µM [falling, partial curve]

Question: For `O=C(NCCc1csc2nc(-c3ccc(F)cc3)nn12)c1cccc(C(F)(F)F)c1`, which AC50 [1] is on record?
Answer: 39.8 µM [falling, single point]

Question: With `COc1cccc(C(=O)NCc2nc(-c3ccccc3)no2)c1OC` as the compound, how does the AC50 [1] read?
Answer: 20 µM [falling, single point]

Question: Which AC50 [1] does the source give for `Cc1ccc(-c2noc(CCC(=O)N3CCN(c4cccc(C(F)(F)F)c4)CC3)n2)cc1` here?
Answer: 15.8 µM [falling, partial curve]

Question: Which AC50 [1] does the source give for `Cc1ccc(C)c(NC(=O)c2ccc3nc(CCc4ccccc4)oc3c2)c1` here?
Answer: 0.1 µM [rising, full curve, poor fit]

Question: For `CCOC(=O)CNS(=O)(=O)c1cc(-c2nnc(Nc3cccc(O)c3)c3ccccc23)ccc1C`, which AC50 [1] is on record?
Answer: 25.1 µM [falling, partial curve]

Question: With `CCCc1ccc(C2Sc3ccccc3NC3=C2C(=O)c2ccccc23)cc1` (centres undefined) as the compound, how does the AC50 [1] read?
Answer: 10 µM [falling, partial curve]

Question: Which AC50 [1] does the source give for `COc1ccc(N2CCN(Cc3nc4c(c(=O)n(C)c(=O)n4C)n3CCc3ccccc3)CC2)cc1` here?
Answer: 39.8 µM [falling, single point]

Question: Which AC50 [1] does the source give for `CCCOc1cccc(NC(=O)c2cc(C)oc2C)c1` here?
Answer: 25.1 µM [falling, partial curve]

Question: With `CCn1cc(CNC(=O)c2cc(-c3ccc(C)c(C)c3)nc3ccccc23)c(C)n1` as the compound, how does the AC50 [1] read?
Answer: 25.1 µM [falling, single point]

Question: With `COc1ccc(C(=O)Nc2cc(OC)ccc2OC)cc1` as the compound, how does the AC50 [1] read?
Answer: 31.6 µM [falling, single point]

Question: For `COCc1cc(=O)n2c(-c3ccccc3OC)n[nH]c2n1`, which AC50 [1] is on record?
Answer: 12.6 µM [falling, partial curve]

Question: For `CCOc1ccccc1CNS(=O)(=O)c1ccc(-c2coc(C)n2)cc1`, which AC50 [1] is on record?
Answer: 25.1 µM [falling, partial curve, poor fit]
